The assay is described as follows: qHTS Assay for Lipid Storage Modulators in Drosophila S3 Cells.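 On cell number change: cells counted by Cell Tracker Red CMTPX staining in the red channel.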 Particulars: BODIPY lipid droplet fluorescence, 18-24 h; for cell number change: measured here: cell count max response, cells fed with added oleic acid. The method in brief:
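Drosophila S3 cells got compounds at several concentrations plus oleic acid (400 uM solution). Laser-scanning cytometry with 488 nm excitation read lipid droplets at 500-530 nm and cells at 575-640 nm. Percent activity was relative to 20 uM Triacsin C.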
Background: qHTS replaces the single test concentration by a dilution series.

The mark [1] stands for this setting: measured here: cell number channel AC50, cells fed with added oleic acid.
[2] abbreviates: measured here: lipid fluorescence (Fed channel) AC50, cells fed with added oleic acid.

This is one part of the list. Shown are side measurements of this screen, not its main read-out; they come without a call. Compounds called inactive in the main read-out are mostly missing here. Potencies come from curve fits of mixed quality, noted in brackets.

In general, AC50 refers to the concentration giving half of the maximal activity seen. Lower therefore signals greater potency.

On to `Cc1cn2c(N)c(C=C3C=C(Cl)C(=O)C(Cl)=C3)c(=O)nc2s1`, for which the cell number change turned out to be 31.6%. Also, the AC50 under setting [1] is 10.3 µM [rising, partial curve, poor fit]. Also, the AC50 under setting [2] is 16.4 µM [rising, partial curve].

With `COc1ccccc1CNC(=O)C(C)Sc1ccsc1[N+](=O)[O-]` (centres undefined), the AC50 under setting [2] was 29.1 µM [rising, single point].

Turning to `CC(=O)N=C1SC2CS(=O)(=O)CC2N1c1c(Cl)cccc1Cl` (centres undefined), the cell number change is 1.44%.

As to `Cc1c(Cl)cccc1NC(=S)NCCN1CCOCC1`, the cell number change is 17.2%. In addition, the AC50 under setting [1] is 0.13 µM [falling, full curve, poor fit].

As for `O=C(N/N=C/c1cccc(Br)c1)c1ccc(Br)cc1`, the cell number change came out at 20.6%.

With `CC(OC(=O)Cn1cnc2c1c(=O)n(C)c(=O)n2C)C(=O)NC(C)c1ccc(Cl)cc1Cl` (centres undefined), the cell number change is -31.5%. Also, the concentration at half-maximal activity (AC50) under setting [1] is 13 µM [falling, partial curve, poor fit].

With `Cc1ccc(C(=O)OC2OC(=O)C(Cl)=C2N2CCOCC2)cc1` (centres undefined), the cell number change is -20.5%. For the same compound, the AC50 under setting [1] was 1.03 µM [falling, full curve, poor fit]. For the same compound, the half-maximal activity concentration (AC50) under setting [2] is 4.61 µM [falling, single point].

Take `COc1ccccc1-c1noc(-c2cccnc2)n1`: the AC50 under setting [2] is 0.58 µM [falling, single point].

Regarding `Cc1c(Cc2ccccc2)c(=O)oc2cc(OCc3nn[nH]n3)ccc12`, the cell number change worked out at 3.32%.

On to `CCOC(=O)C(C)C1(O)c2ccccc2-c2ncccc21` (centres undefined), for which the cell number change was -10.6%. Also, the AC50 under setting [2] is 0.146 µM [falling, full curve, poor fit].

For the compound `COc1cc(C(=S)N2CCOCC2)cc(OC)c1OC(=O)c1cccc(C)c1`, the cell number change was -8.15%. Also, the AC50 under setting [2] is 29.1 µM [falling, single point].

On to `O=C(Nc1ccc(-n2cccn2)cc1)C1CCCCN1Cc1cccc2cccnc12` (centres undefined), for which the cell number change was determined as 13.2%. In addition, under setting [2], the AC50 was 6.51 µM [rising, single point].

Take `COC(=O)c1ccccc1S(=O)(=O)N1CCC(C(=O)OCC(=O)NCC(F)(F)F)CC1`: the cell number change was -49.5%. Besides, under setting [1], the AC50 is 16.4 µM [falling, single point]. The AC50 under setting [2] was 18.4 µM [falling, single point].

Consider `Nc1c(C(=O)Nc2ccccc2Cl)nnn1-c1ccc2c(c1)OCCO2`, for which the cell number change was 134%. The AC50 under setting [1] is 29.1 µM [rising, single point].

On to `C/C(CCc1ccccc1)=N\NC(=O)COc1ccccc1C`, for which the cell number change was -43.7%. For the same compound, under setting [2], the AC50 is 22.4 µM [rising, single point].

For the compound `Cc1ccc(NC(=S)NC2CC3CCC(C2)N3Cc2ccco2)c(C)c1` (centres undefined), the cell number change is -72.8%. Besides, under setting [1], the concentration at half-maximal activity (AC50) was 23.1 µM [falling, partial curve, poor fit]. For the same compound, under setting [2], the AC50 is 11.6 µM [falling, partial curve, poor fit].

Regarding `NS(=O)(=O)c1ccc(CCNC(=O)C2Cc3ccccc3CN2C(=O)c2ccco2)cc1` (centres undefined), the AC50 under setting [1] is 0.651 µM [falling, single point] and the AC50 under setting [2] was 0.731 µM [falling, single point].

As to `COc1ccc(/C=C2\SC(N)=NC2=O)cc1`, the cell number change worked out at 0.549%. The AC50 under setting [2] was 29.1 µM [rising, single point].

`CSc1ccc(/C=N\Nc2nncn2N)cc1`: the cell number change was -67.6%. The AC50 under setting [1] was 29.1 µM [falling, single point]. Under setting [2], the half-maximal activity concentration (AC50) is 29.1 µM [falling, single point].

With `O=C(O)COCCN1CCN(C(c2ccccc2)c2ccc(Cl)cc2)CC1` (centres undefined), the cell number change is -18.8%. The AC50 under setting [1] is 0.00411 µM [falling, full curve, poor fit]. Moreover, the AC50 under setting [2] is 0.00461 µM [falling, full curve, poor fit].

With `CC(=O)n1cc([C@H]2C=C(C(=O)N3CCN(Cc4ccc5c(c4)OCO5)CC3)O[C@@H](OCc3ccc(CO)cc3)C2)c2ccccc21`, the cell number change was -42.3%. Besides, under setting [1], the AC50 was 20.6 µM [falling, partial curve, poor fit]. Moreover, under setting [2], the AC50 is 23.1 µM [falling, single point].

As for `CC(C)C(CCNC(=O)CN1C(=O)c2ccccc2C1=O)c1ccco1` (centres undefined), the cell number change was -33.3%. For the same compound, under setting [1], the AC50 was 2.06 µM [falling, partial curve]. Also, under setting [2], the AC50 is 1.84 µM [falling, full curve, poor fit].

Take `CCOc1ccc(-n2cnc3sc(C)c(C)c3c2=O)cc1`: the cell number change stood at 23.3%. In addition, the AC50 under setting [1] is 0.651 µM [rising, full curve, poor fit].

In the case of `O=c1[nH]c(CSc2ncc(C(F)(F)F)cc2Cl)nc2ccccc12`, the cell number change was 22.3%. For the same compound, under setting [1], the AC50 was 0.58 µM [rising, single point].

For the compound `COc1ccc(CCN2CC(C(=O)OC(C)C(=O)Nc3cccc(Cl)c3)CC2=O)cc1OC` (centres undefined), the cell number change is -14.1%. The AC50 under setting [2] was 10.3 µM [rising, partial curve].

In the case of `COc1nc(N)c(S(=O)(=O)c2ccc(C)cc2)cc1C#N`, the AC50 under setting [2] was 29.1 µM [rising, single point].

Take `CCOc1ccc(CNC(c2ccccc2)c2ccccc2)cc1`: the cell number change was -1.37%. In addition, the AC50 under setting [2] was 29.1 µM [rising, single point].

With `Cc1ccc(NC(=O)NC2CCN(CC(=O)Nc3nccs3)CC2)cc1`, the cell number change was -11.1%. For the same compound, the concentration at half-maximal activity (AC50) under setting [2] was 0.146 µM [rising, full curve].

In the case of `COc1ccc(C(CC(=O)N2CCCC2)c2c(OC)cc(OC)c3ccc(=O)oc23)cc1` (centres undefined), the cell number change turned out to be 8.48%. In addition, the concentration at half-maximal activity (AC50) under setting [2] is 20.6 µM [rising, single point].

As to `CCC(C)(C)NC(=O)C(c1cccnc1)N(CCOC)C(=O)Cn1nnc2ccccc21` (centres undefined), the cell number change is -0.457%. In addition, the AC50 under setting [1] is 0.0731 µM [rising, full curve, poor fit].

On to `CSc1ccccc1OCc1cc(C(=O)NCCCn2nc(C)cc2C)no1`, for which the cell number change is -14.4%. The AC50 under setting [1] was 1.64 µM [rising, partial curve, poor fit].

On to `Cc1nc(NC(=O)C2CC2)sc1C`, for which the cell number change is -2.44%. In addition, the concentration at half-maximal activity (AC50) under setting [1] was 1.84 µM [falling, partial curve]. The concentration at half-maximal activity (AC50) under setting [2] was 1.84 µM [falling, partial curve].

Take `COc1ccc(NC(=S)N2CCC(NC(=O)c3cccc(C)c3)CC2)cc1`: the cell number change was 1.28%. Also, the AC50 under setting [2] was 0.411 µM [falling, partial curve].

With `C[C@H](NC(=O)c1ccccc1)C(=O)OCC(=O)Nc1ccc2c(c1)OCO2`, the cell number change is -16.4%. The AC50 under setting [2] was 0.411 µM [falling, full curve, poor fit].

Regarding `CCCc1ncc(CN2CCCC(C(=O)Nc3ccc(-c4cccc(OC)c4)cc3)C2)cn1` (centres undefined), the cell number change was -17.4%.

In the case of `CCC(C)NC(=O)CN(C1CCCCC1)S(=O)(=O)c1ccc(F)cc1` (centres undefined), the cell number change was determined as 21.1%. In addition, the AC50 under setting [1] was 2.06 µM [rising, partial curve, poor fit].

(Values after PubChem BioAssay AID2685 (National Center for Advancing Translational Sciences (NCATS), 2010).)
